{"source": "patent EP0422215B1", "about": "“ANTIBACTERIAL AND AN[…]” (THE ROCKEFELLER UNIVERSITY, priority 1989, dated 1990)", "type_in_all_cases": "cell-based", "key": {"[1]": {"test_system": "Plasmodium falciparum strain F32 (Tanzania)", "assay": "inhibition of reinvasion of human red cells by blood stream forms of the malaria parasite", "conditions": "for activity against Plasmodium falciparum (inhibition of reinvasion, Figure 1): read from Figure 1", "protocol": "The blood stream forms of the malaria parasite Plasmodium falciparum, primarily late trophozoites and early schizonts, were assayed by recording the inhibition of the reinvasion of human red cells by the method of Wahlin, B., et al, (1984) Proc. Natl. Acad. Sci. USA 81, 7912-16. Quadruplicate microcultures of strain F32 (Tanzania) were incubated for 20 hrs at 37°C in a complete tissue culture medium, with or without different concentrations of the peptides to be assayed. After acridine orange staining, the percentage of newly infected red cells was scored in a fluorescence microscope. For each culture 40,000 red cells were analysed for parasitic infection. Duplicate assays were run for CA(1-13)M(1-13)."}, "[2]": {"test_system": "B. subtilis Bsll", "conditions": "against Bacillus subtilis; result in words", "protocol": "(§1) The products of the invention were tested for activity against a variety of test organisms selected to represent a number of different types of pathogens some of them known to be particularly virulent by the inhibition zone assay of Hoffmann et al. (1981) Insect Biochem. 11 537-548. Thin agar or agarose plates (8.5 cm diameter) were prepared with 6 ml of rich medium containing 100 µg/ml of streptomycin and 2 x 10^5 viable cells of a test organism resistant to streptomycin. Wells of […] were punched in the plates and 3 µl of serially diluted samples were placed in the wells. The diameters of the zones of inhibition around the wells were measured after overnight incubation at 30° or 37°C. For each peptide the squares of the zone diameters were plotted against the logarithm of the concentration, and from the slopes and intercepts the lethal concentrations were calculated as described by Hultmark (1983) EMBO J. 2, 571-76 or Hultmark et al. (1982) Eur. J. Biochem. 127 207-217.\n(§2) Novel peptides CA(1-8)M(1-18), CA(1-9)M(1-17), CB(1-13)M(1-13), CA(1-17)M(1-9), CA(1-18)M(1-8), M(1-13)CA(1-22) and M(1-13)CA(1-13) were prepared as described above (see Examples 1-6). […] The diameters of the zones of inhibition were measured after overnight incubation at 30°C. The lethal concentrations were determined as described above (see Examples 1-6; Hultmark et al. articles cited thereat)."}, "[3]": {"test_system": "S. aureus Cowan I", "conditions": "against Staphylococcus aureus; result in words", "protocol": "as §1, §2"}, "[4]": {"test_system": "Saccharomyces cerevisiae", "assay": "inhibition zone assay, yeast", "conditions": "result in words"}}, "note": "At least one peptide structure holds a part that was inferred or is arguable (an end, a ring closure or a residue). Where no end group is shown, it is not given here."}
{"molecule": "CC[C@H](C)[C@H](NC(=O)CNC(=O)[C@@H](NC(=O)[C@H](CCCCN)NC(=O)[C@H](CCCCN)NC(=O)[C@H](Cc1ccccc1)NC(=O)[C@H](CC(C)C)NC(=O)[C@H](CCCCN)NC(=O)[C@H](Cc1c[nH]c2ccccc12)NC(=O)[C@@H](N)CCCCN)[C@@H](C)CC)C(=O)NCC(=O)N[C@@H](C)C(=O)N[C@H](C(=O)N[C@@H](CC(C)C)C(=O)N[C@@H](CCCCN)C(=O)N[C@H](C(=O)N[C@@H](CC(C)C)C(=O)N[C@H](C(=O)N[C@H](C(=O)NCC(=O)N[C@@H](CC(C)C)C(=O)N1CCC[C@H]1C(=O)N[C@@H](C)C(=O)N[C@@H](CC(C)C)C(=O)N[C@H](C(=O)N[C@@H](CO)C(N)=O)[C@@H](C)CC)[C@@H](C)O)[C@@H](C)O)C(C)C)C(C)C", "note": "[CA(1-8)M(1-18)]", "values": [{"measurement": "IC50", "setting": "[1]; 20 hrs at 37°C, human red cells, read-out: concentration that yields a 50% inhibition of reinvasion", "result": "~2.2", "unit": "µM"}, {"measurement": "potency relative to CA(1-13)M(1-13), inhibition of reinvasion", "setting": "[1]; result in words", "result": "about four times more potent than CA(1-13)M(1-13)"}]}
{"molecule": "GMASKAGAIAGKIAKVALKAL-NH2 [PGLa, reference compound]", "values": [{"measurement": "activity against Plasmodium falciparum (inhibition of reinvasion, Figure 1)", "setting": "[1]; result in words", "result": "intermediate activity"}]}
{"molecule": "CC[C@H](C)[C@H](NC(=O)CNC(=O)[C@H](CCC(N)=O)NC(=O)CNC(=O)[C@@H](NC(=O)[C@H](CCCCN)NC(=O)[C@H](CCC(=O)O)NC(=O)[C@@H](NC(=O)[C@H](CCCCN)NC(=O)[C@H](CCCCN)NC(=O)[C@H](Cc1ccccc1)NC(=O)[C@H](CC(C)C)NC(=O)[C@H](CCCCN)NC(=O)[C@H](Cc1c[nH]c2ccccc12)NC(=O)[C@@H](N)CCCCN)[C@@H](C)CC)C(C)C)C(=O)NCC(=O)N[C@@H](C)C(=O)N[C@H](C(=O)N[C@@H](CC(C)C)C(=O)N[C@@H](CCCCN)C(=O)N[C@H](C(=O)N[C@@H](CC(C)C)C(=O)N[C@H](C(=O)N[C@H](C(=O)NCC(=O)N[C@@H](CC(C)C)C(N)=O)[C@@H](C)O)[C@@H](C)O)C(C)C)C(C)C", "note": "[CA(1-13)M(1-13)]", "values": [{"measurement": "activity compared with cecropin A", "setting": "[2]", "result": "more active"}, {"measurement": "activity compared with cecropin A", "setting": "[3]", "result": "more active"}, {"measurement": "activity against Plasmodium falciparum (inhibition of reinvasion, Figure 1)", "setting": "[1]; result in words", "result": "of an order more potent than CB"}, {"measurement": "potency against yeast compared with cecropin A", "setting": "[4]", "result": "greater than cecropin A"}]}
{"molecule": "CC[C@H](C)[C@H](NC(=O)CNC(=O)[C@@H]1CCCN1C(=O)CNC(=O)[C@H](C)NC(=O)[C@H](CCCCN)NC(=O)[C@@H](NC(=O)[C@@H](NC(=O)CNC(=O)[C@H](CC(=O)O)NC(=O)[C@H](CCCNC(=N)N)NC(=O)[C@@H](NC(=O)[C@H](CC(N)=O)NC(=O)[C@H](CCC(N)=O)NC(=O)CNC(=O)[C@@H](NC(=O)[C@H](CCCCN)NC(=O)[C@H](CCC(=O)O)NC(=O)[C@@H](NC(=O)[C@H](CCCCN)NC(=O)[C@H](CCCCN)NC(=O)[C@H](Cc1ccccc1)NC(=O)[C@H](CC(C)C)NC(=O)[C@H](CCCCN)NC(=O)[C@H](Cc1c[nH]c2ccccc12)NC(=O)[C@@H](N)CCCCN)[C@@H](C)CC)C(C)C)[C@@H](C)CC)[C@@H](C)CC)[C@@H](C)CC)C(=O)NCC(=O)N[C@@H](C)C(=O)N[C@H](C(=O)N[C@@H](CC(C)C)C(=O)N[C@@H](CCCCN)C(=O)N[C@H](C(=O)N[C@@H](CC(C)C)C(=O)N[C@H](C(=O)N[C@H](C(=O)NCC(=O)N[C@@H](CC(C)C)C(N)=O)[C@@H](C)O)[C@@H](C)O)C(C)C)C(C)C", "note": "[CA(1-24)M(1-13)]", "values": [{"measurement": "potency against yeast compared with cecropin A", "setting": "[4]", "result": "greater than cecropin A"}]}
